Some of the results follow. The calls rarely recur for the same compound in another form.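 In K562 cells expressing nanoluciferase-fused kinases, luminescence was recorded at 4 h intervals between 2 and 18 h, normalized as percent of control with DMSO at 100% and a positive control at 0%. A significant (2 sigma) signal drop marks a time point as decreased. The authors' rule for a hit is not shown and takes in more than the number of time points.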

Protein sequences, listed by entry. Tags and fused reporters are not part of them. Lines headed by an entry give the natural chain unless they say otherwise; changes in a name come on top.
UniProt Q6PHR2: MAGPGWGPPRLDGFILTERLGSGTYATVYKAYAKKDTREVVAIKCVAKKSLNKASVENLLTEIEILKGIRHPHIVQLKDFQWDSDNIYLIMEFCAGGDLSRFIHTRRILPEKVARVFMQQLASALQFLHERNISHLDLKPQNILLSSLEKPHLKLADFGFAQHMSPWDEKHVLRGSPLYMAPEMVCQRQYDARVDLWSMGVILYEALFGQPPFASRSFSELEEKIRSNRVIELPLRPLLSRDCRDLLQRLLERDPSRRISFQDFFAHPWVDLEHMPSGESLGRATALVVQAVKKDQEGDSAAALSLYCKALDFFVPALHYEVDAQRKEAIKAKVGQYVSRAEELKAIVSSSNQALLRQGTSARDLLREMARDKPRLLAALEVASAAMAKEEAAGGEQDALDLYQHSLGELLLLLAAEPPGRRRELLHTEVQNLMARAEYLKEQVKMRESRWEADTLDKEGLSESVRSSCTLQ
UniProt P07949, whole entry M918T, looked up: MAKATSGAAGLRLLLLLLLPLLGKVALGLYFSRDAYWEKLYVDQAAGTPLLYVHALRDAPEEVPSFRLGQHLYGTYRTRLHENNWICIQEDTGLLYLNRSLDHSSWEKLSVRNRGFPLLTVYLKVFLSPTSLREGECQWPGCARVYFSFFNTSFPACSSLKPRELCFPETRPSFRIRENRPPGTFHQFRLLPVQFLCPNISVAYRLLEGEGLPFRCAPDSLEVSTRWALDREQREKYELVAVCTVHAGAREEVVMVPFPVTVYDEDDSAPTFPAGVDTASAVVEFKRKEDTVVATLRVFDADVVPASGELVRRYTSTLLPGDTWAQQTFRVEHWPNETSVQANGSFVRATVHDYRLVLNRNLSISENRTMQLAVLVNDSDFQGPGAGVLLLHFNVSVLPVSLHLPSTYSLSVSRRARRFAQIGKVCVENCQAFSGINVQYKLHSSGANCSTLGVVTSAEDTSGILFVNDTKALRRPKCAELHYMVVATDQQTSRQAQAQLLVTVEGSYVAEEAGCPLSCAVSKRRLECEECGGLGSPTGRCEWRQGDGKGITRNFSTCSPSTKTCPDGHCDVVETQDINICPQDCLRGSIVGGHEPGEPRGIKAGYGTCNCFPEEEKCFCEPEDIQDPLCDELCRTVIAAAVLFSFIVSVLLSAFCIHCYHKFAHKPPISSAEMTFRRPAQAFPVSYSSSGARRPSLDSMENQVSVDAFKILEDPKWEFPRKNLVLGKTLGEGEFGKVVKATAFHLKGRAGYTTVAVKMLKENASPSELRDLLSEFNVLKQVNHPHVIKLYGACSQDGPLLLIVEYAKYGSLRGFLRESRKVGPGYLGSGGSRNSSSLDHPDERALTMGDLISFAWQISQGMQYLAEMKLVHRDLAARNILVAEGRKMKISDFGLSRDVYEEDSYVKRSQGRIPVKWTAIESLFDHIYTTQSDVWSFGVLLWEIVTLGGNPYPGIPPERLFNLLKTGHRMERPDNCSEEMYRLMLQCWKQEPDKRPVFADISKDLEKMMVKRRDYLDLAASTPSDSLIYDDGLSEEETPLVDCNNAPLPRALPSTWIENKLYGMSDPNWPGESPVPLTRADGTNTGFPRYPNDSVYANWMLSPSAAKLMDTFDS
UniProt O96013: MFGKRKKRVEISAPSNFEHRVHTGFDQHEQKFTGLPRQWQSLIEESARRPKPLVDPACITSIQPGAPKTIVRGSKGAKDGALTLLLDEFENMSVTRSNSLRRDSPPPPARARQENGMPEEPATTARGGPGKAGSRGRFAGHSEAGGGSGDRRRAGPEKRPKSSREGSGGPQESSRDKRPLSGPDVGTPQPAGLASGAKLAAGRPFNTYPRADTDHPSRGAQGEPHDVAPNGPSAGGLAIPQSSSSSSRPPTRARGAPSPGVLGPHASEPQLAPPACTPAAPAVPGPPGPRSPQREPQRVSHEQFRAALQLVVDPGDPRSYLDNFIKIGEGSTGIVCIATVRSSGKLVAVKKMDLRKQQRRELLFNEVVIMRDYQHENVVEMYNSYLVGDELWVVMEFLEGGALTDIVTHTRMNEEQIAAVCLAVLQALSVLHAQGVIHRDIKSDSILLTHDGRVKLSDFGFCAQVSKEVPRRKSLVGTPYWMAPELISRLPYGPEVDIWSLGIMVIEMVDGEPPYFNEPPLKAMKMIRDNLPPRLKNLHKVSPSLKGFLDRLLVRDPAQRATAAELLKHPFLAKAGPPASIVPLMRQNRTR
UniProt Q00534, whole entry: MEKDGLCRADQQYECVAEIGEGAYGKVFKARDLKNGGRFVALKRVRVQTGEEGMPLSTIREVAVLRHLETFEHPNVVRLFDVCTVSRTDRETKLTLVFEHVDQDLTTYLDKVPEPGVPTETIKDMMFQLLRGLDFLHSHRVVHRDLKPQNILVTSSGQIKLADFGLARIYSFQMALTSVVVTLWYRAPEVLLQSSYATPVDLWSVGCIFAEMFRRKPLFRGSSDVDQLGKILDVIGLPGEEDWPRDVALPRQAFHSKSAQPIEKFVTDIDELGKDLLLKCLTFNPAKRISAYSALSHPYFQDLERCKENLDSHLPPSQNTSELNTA
UniProt P49840: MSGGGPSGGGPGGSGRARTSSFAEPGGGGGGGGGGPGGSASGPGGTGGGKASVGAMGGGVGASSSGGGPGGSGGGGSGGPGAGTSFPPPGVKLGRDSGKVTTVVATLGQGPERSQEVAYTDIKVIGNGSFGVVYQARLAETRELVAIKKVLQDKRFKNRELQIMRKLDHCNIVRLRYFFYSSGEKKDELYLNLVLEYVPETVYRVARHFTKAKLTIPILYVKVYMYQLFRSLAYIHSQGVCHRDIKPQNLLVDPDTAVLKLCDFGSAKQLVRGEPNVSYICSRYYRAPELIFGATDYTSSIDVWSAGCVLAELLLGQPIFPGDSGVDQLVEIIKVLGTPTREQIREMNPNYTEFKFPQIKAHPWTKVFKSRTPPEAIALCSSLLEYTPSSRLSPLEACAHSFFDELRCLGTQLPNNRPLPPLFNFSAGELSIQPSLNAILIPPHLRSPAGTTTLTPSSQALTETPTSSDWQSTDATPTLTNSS

Common to all, as to assay: number of time points (of 5) at which kinase-Nluc abundance scored as decreased, DMSO-normalised (count); higher = more persistent destabilization
Compound in one assay: CS(=O)(=O)N1CCN(Cc2cc3nc(-c4cccc5[nH]ncc45)nc(N4CCOCC4)c3s2)CC1 [Pictilisib]
The conditions noted are these: 10 µM; K562; 2-18 h.

Compound in assay [1]: C[C@@H](N)[C@H]1CC[C@H](C(=O)Nc2ccncc2)CC1
The conditions noted are these: 10 µM; K562; 2-18 h.

Compound in assay [2]: C[C@@H](N)c1ccc(C(=O)Nc2ccnc3[nH]ccc23)cc1
The conditions noted are these: 10 µM; K562; 2-18 h.

Compound in assay [3]: C[C@H](CCC(=O)NCCS(=O)(=O)O)[C@H]1CC[C@H]2[C@@H]3[C@@H](O)C[C@@H]4C[C@H](O)CC[C@]4(C)[C@H]3CC[C@]12C [Tauroursodeoxycholate (dihydrate)]
The note with it: 10 µM; K562; 2-18 h.

Compound in assay [4]: C[C@H](CCC(=O)NCCS(=O)(=O)O)[C@H]1CC[C@H]2[C@@H]3[C@@H](O)C[C@@H]4C[C@H](O)CC[C@]4(C)[C@H]3CC[C@]12C [Tauroursodeoxycholate (sodium)]
The conditions noted are these: 10 µM; K562; 2-18 h.

Compound in assay [5]: C[C@H](Nc1cc(-c2cnn(C)c2)cc(Nc2cnccn2)n1)c1ccc(F)cc1 [Ilginatinib hydrochloride]
The note with it: 2.5 µM; K562; 2-18 h.

Compound in another assay: C[C@H](Nc1cc(-c2cnn(C)c2)cc(Nc2cnccn2)n1)c1ccc(F)cc1 [Ilginatinib]
The note with it: 2.5 µM; K562; 2-18 h.

Compound in assay [6]: C[S+]([O-])c1ccc(-c2nc(-c3ccc(F)cc3)c(-c3ccncc3)[nH]2)cc1
The note with it: 10 µM; K562; 2-18 h.

Compound in a further assay: Cc1[nH]c(/C=C2\C(=O)Nc3ccc(F)cc32)c(C)c1C(=O)NCCN1CCCC1 [Toceranib (phosphate)]
The conditions noted are these: 2 µM; K562; 2-18 h.

Compound in another assay: Cc1[nH]c(/C=C2\C(=O)Nc3ccc(F)cc32)c(C)c1C(=O)NCCN1CCCC1 [Toceranib]
The conditions noted are these: 2 µM; K562; 2-18 h.

Compound in assay [7]: Cc1cc(Nc2ncc(Cl)c(Nc3ccccc3S(=O)(=O)C(C)C)n2)c(OC(C)C)cc1C1CCNCC1 [Ceritinib dihydrochloride]
The conditions noted are these: 2.5 µM; K562; 2-18 h.

Compound in another assay: Cc1cc(Nc2ncc(Cl)c(Nc3ccccc3S(=O)(=O)C(C)C)n2)c(OC(C)C)cc1C1CCNCC1 [Ceritinib]
The note with it: 2.5 µM; K562; 2-18 h.

Compound in another assay: Cc1ccc(NC(=O)c2ccc(CN3CCN(C)CC3)cc2)cc1Nc1nc(-c2cccnc2)cs1 [Masitinib (mesylate)]
The note with it: 2.5 µM; K562; 2-18 h.

Compound in another assay: Cc1ccc(NC(=O)c2ccc(CN3CCN(C)CC3)cc2)cc1Nc1nc(-c2cccnc2)cs1 [Masitinib]
The conditions noted are these: 2.5 µM; K562; 2-18 h.

Compound in assay [8]: Cc1cccc(-c2[nH]c(CNc3ccccc3F)nc2-c2ccc3ncnn3c2)n1 [Vactosertib (Hydrochloride)]
The note with it: 2.5 µM; K562; 2-18 h.

Compound in a further assay: Cc1cccc(-c2[nH]c(CNc3ccccc3F)nc2-c2ccc3ncnn3c2)n1 [Vactosertib]
The conditions noted are these: 2.5 µM; K562; 2-18 h.

Compound in another assay: Cc1cccc(/C=N/Nc2cc(N3CCOCC3)nc(OCCc3ccccn3)n2)c1 [Apilimod (mesylate)]
The note with it: 10 µM; K562; 2-18 h.

Compound in another assay: Cc1cccc(/C=N/Nc2cc(N3CCOCC3)nc(OCCc3ccccn3)n2)c1 [Apilimod]
The conditions noted are these: 2.5 µM; K562; 2-18 h.

Compound in assay [9]: Cc1nc2ccc(-n3c(-c4nonc4N)nc4cnccc43)cc2[nH]1
The note with it: 10 µM; K562; 2-18 h.

Compound in another assay: Clc1ccc(C2(c3ccc(-c4cn[nH]c4)cc3)CCNCC2)cc1 [AT7867 (dihydrochloride)]
The conditions noted are these: 2.5 µM; K562; 2-18 h.

In the case of ULK3 (UniProt Q6PHR2), the “number of time points” value in the assay with Pictilisib stood at 0; in assay [1], 0; in assay [2], 0; in assay [3] it was 0; in assay [4], 0; in assay [5], 2. Further, the “number of time points” value with Ilginatinib was 2; in [6] it was 0; with Toceranib (phosphate), 0; in the assay with Toceranib, 0; in assay [7], 0; with Ceritinib, 0. Besides, the “number of time points” value with Masitinib (mesylate) turned out to be 2; in the assay with Masitinib, 2; in [8], 0; with Vactosertib, 0; in the assay with Apilimod (mesylate), 1; with Apilimod it was 0. Further, the “number of time points” value (in assay [9]; with AT7867 (dihydrochloride)) was 0 throughout.
Take “RET_M918T (clone: RET_mut) (UniProt P07949)”: the “number of time points” value (in the assay with Pictilisib; in assay [2]; in assay [3]; in assay [4]; in [5]; with Ilginatinib) was 0 in each case. The “number of time points” value (in [6]; with Toceranib (phosphate); with Toceranib; in [7]; with Ceritinib; in the assay with Masitinib (mesylate)) was 0 each time. For the same target, the “number of time points” value (in the assay with Masitinib; in assay [8]; with Vactosertib; in the assay with Apilimod (mesylate); with Apilimod; in assay [9]) was 0 throughout. Also, in the assay with AT7867 (dihydrochloride), the “number of time points” value came out at 0.
As for PAK4 (UniProt O96013), the “number of time points” value (with Pictilisib; in [1]; in [2]; in assay [3]; in assay [4]; in assay [5]) was 0 each time. Also, the “number of time points” value (with Ilginatinib; in assay [6]; in the assay with Toceranib (phosphate); with Toceranib; in assay [7]; in the assay with Ceritinib) was 0 in each case. In addition, the “number of time points” value (with Masitinib (mesylate); with Masitinib; in assay [8]; with Vactosertib; in the assay with Apilimod (mesylate); in the assay with Apilimod) was 0 each time. Besides, the “number of time points” value (in assay [9]; with AT7867 (dihydrochloride)) was 0 throughout.
Turning to CDK6 (UniProt Q00534), the “number of time points” value (with Pictilisib; in assay [1]; in assay [2]; in assay [3]; in [4]; in assay [5]) was 0 each time. Moreover, the “number of time points” value (in the assay with Ilginatinib; in assay [6]; with Toceranib (phosphate); with Toceranib; in assay [7]; with Ceritinib) was 0 each time. The “number of time points” value (in the assay with Masitinib (mesylate); with Masitinib; in assay [8]; with Vactosertib; with Apilimod (mesylate); in the assay with Apilimod) was 0 each time. Moreover, the “number of time points” value (in assay [9]; in the assay with AT7867 (dihydrochloride)) was 0 throughout.
Regarding GSK3A (UniProt P49840), the “number of time points” value (with Pictilisib; in [1]; in [2]; in [3]; in assay [4]; in [5]) was 0 throughout. In addition, the “number of time points” value (with Ilginatinib; in assay [6]; with Toceranib (phosphate); with Toceranib; in [7]; with Ceritinib) was 0 throughout. The “number of time points” value (in the assay with Masitinib (mesylate); with Masitinib; in [8]; with Vactosertib; with Apilimod (mesylate); with Apilimod) was 0 each time. Moreover, the “number of time points” value (in [9]; in the assay with AT7867 (dihydrochloride)) was 0 throughout.

The record behind these values is the supplement of paper PMC12823440, “Inhibitors supercharge kinase turnover through native proteolytic circuits” (Nature, 2025).
